Laboratory results: the supplement of paper PMC3334620
In all, about 33,000 sequences were measured (“E-score (-0.5 to 0.5)”: median about -0.0059, highest 2% from about 0.26 on). The list shows a part of the results.

Each sequence was assayed against T1, Cin5 (UniProt P40917) (assay: PBM E-score (8-mer binding enrichment) (E-score (-0.5 to 0.5)); higher = stronger / more preferred TF binding). Settings: protein concentration: 100 nM; construct: GST-full length.
T1 sequence: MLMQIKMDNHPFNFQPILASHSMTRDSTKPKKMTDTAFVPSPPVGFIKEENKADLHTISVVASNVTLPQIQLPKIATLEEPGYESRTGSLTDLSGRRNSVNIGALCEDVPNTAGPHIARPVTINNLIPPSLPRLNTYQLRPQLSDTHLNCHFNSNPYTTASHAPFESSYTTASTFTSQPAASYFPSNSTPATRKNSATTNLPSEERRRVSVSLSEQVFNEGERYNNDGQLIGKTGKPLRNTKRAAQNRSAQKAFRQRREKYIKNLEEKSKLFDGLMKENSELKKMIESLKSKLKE
Summary of the method: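 Yeast transcription factors, full-length or as DNA-binding domains, were expressed with a GST tag using PURExpress in vitro transcription/translation. At about 100-200 nM they were applied to universal all-10-mer Agilent arrays, double-stranded by primer extension on fresh or once-stripped slides. Fluorescent anti-GST detected bound protein, and masliner normalised the scans. E-scores for ungapped eight-base words, pooled with reverse complements, came from the Universal PBM Analysis Suite.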

Sequence | PBM E-score
AAAGAACT | -0.0138
GCATGGTA | 0.0106
CCCTCACA | 0.00055
ACCATCTC | 0.158
TCTGCCCA | -0.166
AGTGCGAT | 0.0262
GGTTCAGA | -0.18
GGTTTTGA | 0.127
AGAGGACC | -0.22
CTTTTGGA | -0.0744
TCAATAAA | 0.0175
CCGATACC | -0.12
TCCAGAGA | -0.0725
CAACCCAG | -0.131
CTGGACAA | -0.0606
CGACAAAA | 0.0427
ACCACCGA | -0.143
CCTCCTGC | -0.159
AACCTTGG | -0.0583
CGCATTAA | 0.127
TTGAGCAA | -0.0752
GAGTACGC | -0.205
GCAGAGAC | -0.271
TACCGAGA | -0.0161
CAGACCAC | -0.00112

Sequence | PBM E-score
AATTTGAC | 0.133
GACTCAGA | -0.142
AAGCCCCG | -0.0295
ATTATAAA | 0.195
CCTAGCGA | -0.215
CGGTTAAA | 0.0537
ACTGCATC | 0.108
GAGGTTGA | -0.133
AGCGTTGA | -0.195
GACGGTGC | -0.124
GTGGCCAC | 0.0208
AGGGAGGC | -0.336
ACTCGCGG | -0.035
CGATGATC | 0.02
ATGTCACG | 0.11
AAGACGAG | -0.0816
GAGGCAAA | 0.0934
ATCGCTCG | 0.022
ACTACACT | -0.0752
ACGATAAC | 0.175
ACTGGAAC | -0.0303
TTTATAAA | 0.259
AGTCGATG | 0.101
AAGCCAGT | -0.147
ATGAGGTG | 0.0777

Sequence | PBM E-score
TGGACACA | 0.0222
GCAGGGTA | -0.112
AATCCCTG | 0.0164
ACCAGTAC | -0.0707
CACGCACC | -0.261
ACTAGGCT | -0.0636
AGGCTAGA | -0.291
CTGTCTGC | -0.211
CCTTCTAG | -0.227
CTCAACCA | 0.0963
CGACCCCA | 0.0462
ACGGTTGG | -0.0488
CTCATCAA | 0.0793
CGATAGCA | -0.0588
ATGATCTA | 0.214
AAACCGTA | -0.147
AATCATCC | 0.227
ATTCGCTA | 0.00117
AGGGCGCC | -0.159
CATACGGC | 0.0834
GATATAGA | 0.0867
CAGGCTTA | 0.0661
TAAACCTA | 0.118
TCCGTAGA | -0.132
ACGGTAGG | -0.0787

Sequence | PBM E-score
AGGTCACT | -0.262
AGCGAACC | -0.0568
CTGGGTAC | -0.151
AGTGGAAC | 0.0539
ATTGGGCC | 0.103
CCCAGCGG | -0.255
CGGCATTA | 0.143
GCCTTCCC | -0.293
TCGTACGA | -0.0634
GCATGGCC | -0.126
ATATAATC | 0.21
AACCACGG | -0.0848
CTGGGGGA | -0.375
CAATGGGG | 0.0111
CATAGTTC | 0.0652
CGAACACC | -0.0878
AGGAGGAC | -0.344
CCGCTCTA | 0.00943
CAGGCTCC | -0.263
AACAAAAT | 0.269
AATGAACG | 0.113
AATACGAG | 0.0911
AACCTACC | -0.023
AACCATCC | -0.0275
ACTATCGC | 0.05

Sequence | PBM E-score
ACTAAGTC | -0.0533
TATAAAGA | 0.0342
CCCGGCCC | -0.266
CTTCTTAC | -0.0456
GCCAATAA | 0.216
AAAGCTGT | 0.101
CAGCCCAC | -0.0991
ACTCTCGA | 0.0307
AGCTAGGG | -0.0275
ACCCTATG | -0.00452
CGTATTAA | 0.106
ACAGTCCG | -0.286
GCGGGGCC | -0.202
ATAGTTAC | 0.121
AACCAACC | -0.0801
ACAGGTCG | -0.13
AATTGTGG | 0.0144
GGCTCTGA | -0.183
ATCACTTA | 0.0476
GTGGGGCA | -0.0176
ATTAATCG | 0.228
TCTCATCA | 0.184
CTGTAGGC | -0.155
CACGTTAC | -0.104
CTTACTTA | 0.25

Some values from the entries so far.
In PBM E-score, CTTCTTAC has the entry -0.0456
In PBM E-score, GCGGGGCC has the entry -0.202
In PBM E-score, TCTCATCA has the entry 0.184
In PBM E-score, TATAAAGA has the entry 0.0342
In PBM E-score, ATTAATCG has the entry 0.228

Continuation:

Sequence | PBM E-score
GGTGTAAA | 0.0437
CTACACTA | -0.00599
GGTTTCTA | 0.11
CTGTGTTA | 0.154
ATTATCCA | 0.122
CTACGGCA | -0.147
GATTTAAC | 0.00182
GTCGTTCA | -0.111
CCGGCCAA | -0.138
CCTGCATC | -0.128
AATGCCAG | -0.0328
ATGCGTAG | -0.066
ACGATACT | -0.00523
CTACATAC | 0.172
CGGCGAGA | 0.0316
ATGCCACC | -0.105
ATTATAGC | 0.151
CAGTGGAC | -0.175
ATGCCTCA | -0.0243
CGGAGCAG | -0.0989
GCTGGCGA | -0.13
TAGTCGAA | 0.114
AGTACGAA | 0.167
TATATGCA | 0.0672
CGCCAGCA | -0.232

Sequence | PBM E-score
GTAGTAGA | -0.0361
CAACAACA | 0.213
ACGCCCAG | -0.171
CGCCGACC | -0.282
CCGCACCC | 0.00644
AGGCATCA | -0.227
CGAAGAGA | -0.0316
TCAGATAA | 0.184
AACAGTCC | -0.222
AGATCGCA | -0.00429
AGGAAGCG | 0.0152
ACGGACCT | -0.0998
GGCGGGCA | 0.0277
AGAAGGTG | 0.0112
AGTAGGAG | -0.15
GGGGTAAA | 0.0698
AGAAAGCT | 0.0925
CCGCTAGA | -0.221
CTGGATGA | -0.0113
GGGACTGA | -0.293
ACACTCGG | 0.0922
GCTGGGAC | -0.182

Part of the list above, with each value named:
TATAAAGA
  PBM E-score: 0.0342
CCCGGCCC
  PBM E-score: -0.266
